Six molecules from publication PMC5400277 can be followed below.

These are yes or no findings as the source states them, for the method shown. For part of these data: Binding seen in cells or lysates may run through a third protein. Tags and fused reporters may be left off the sequences shown. Some results given as binding are weak or reduced against the parent protein; the word gives no strength.

Experiment [1] has as its target T1, SPATULA (SPT), BiFC fusion (Arabidopsis) (UniProt Q9FUA4).
T1 sequence: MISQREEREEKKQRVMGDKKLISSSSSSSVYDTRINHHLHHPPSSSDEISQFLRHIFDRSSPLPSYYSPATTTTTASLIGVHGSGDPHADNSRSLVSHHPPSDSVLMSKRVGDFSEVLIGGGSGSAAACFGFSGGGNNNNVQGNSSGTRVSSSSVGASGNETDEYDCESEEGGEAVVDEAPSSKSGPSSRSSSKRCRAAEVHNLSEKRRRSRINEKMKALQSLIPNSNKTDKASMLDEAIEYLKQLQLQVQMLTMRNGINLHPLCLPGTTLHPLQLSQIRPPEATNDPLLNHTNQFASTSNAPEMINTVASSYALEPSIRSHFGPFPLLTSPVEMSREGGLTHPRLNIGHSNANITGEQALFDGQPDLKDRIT
Briefly: split reporter; BiFC with C- and N-terminal YFP fusion constructs (pYFC43, pYFN43) in young N. tabacum leaves; YFP signal assayed 3 days after infiltration by confocal microscopy.

Experiment [2] concerns the target T2, SPATULA (SPT), yeast two-hybrid fusion (Arabidopsis) (UniProt Q9FUA4).
T2 sequence: T1 sequence
The experiment in a line: two-hybrid; DNA-binding domain fusion (SPT in the LexA vector pBTM116c-D9) against Gal4 activation domain fusions (ARRs in pACT2); yeast strain L40ccaU; SD-Gluc medium lacking Leu, Trp, His with 3 mM 3-amino-1,2,4-triazole; scored after 5 days at 25°C.

Compound in experiment [3]: NO … TRACT (NTT), yeast two-hybrid fusion (UniProt Q9SVY1)
Described as above.

B1: ARABIDOPSIS RESPONSE REGULATOR 1 (ARR1), BiFC fusion (protein, UniProt Q940D0 1-690)
chain: MMNPSHGRGLGSAGGSSSGRNQGGGGETVVEMFPSGLRVLVVDDDPTCLMILERMLRTCLYEVTKCNRAEMALSLLRKNKHGFDIVISDVHMPDMDGFKLLEHVGLEMDLPVIMMSADDSKSVVLKGVTHGAVDYLIKPVRMEALKNIWQHVVRKRRSEWSVPEHSGSIEETGERQQQQHRGGGGGAAVSGGEDAVDDNSSSVNEGNNWRSSSRKRKDEEGEEQGDDKDEDASNLKKPRVVWSVELHQQFVAAVNQLGVEKAVPKKILELMNVPGLTRENVASHLQKYRIYLRRLGGVSQHQGNLNNSFMTGQDASFGPLSTLNGFDLQALAVTGQLPAQSLAQLQAAGLGRPAMVSKSGLPVSSIVDERSIFSFDNTKTRFGEGLGHHGQQPQQQPQMNLLHGVPTGLQQQLPMGNRMSIQQQIAAVRAGNSVQNNGMLMPLAGQQSLPRGPPPMLTSSQSSIRQPMLSNRISERSGFSGRNNIPESSRVLPTSYTNLTTQHSSSSMPYNNFQPELPVNSFPLASAPGISVPVRKATSYQEEVNSSEAGFTTPSYDMFTTRQNDWDLRNIGIAFDSHQDSESAAFSASEAYSSSSMSRHNTTVAATEHGRNHQQPPSGMVQHHQVYADGNGGSVRVKSERVATDTATMAFHEQYSNQEDLMSALLKQEGIAPVDGEFDFDAYSIDNIPV
Regarding B1, the binding result in experiment [1] was “no binding”.

B2: ARR20, yeast two-hybrid fusion (protein, UniProt Q9LZJ8 1-426)
chain: MSVFSNILDENSRNLRNEIPCDDGIASPINDDDEEFLTKSNRVLLVGADSNSSLKNLMTQYSYQVTKYESGEEAMAFLMKNKHEIDLVIWDFHMPDINGLDALNIIGKQMDLPVVIMSHEYKKETVMESIKYGACDFLVKPVSKEVIAVLWRHVYRKRMSKSGLDKPGESGTVESDPDEYDDLEQDNLYESNEEGSKNTCDHKEEKSPTKKPRMQWTPELHHKFEVAVEKMGSLEKAFPKTILKYMQEELNVQGLTRNNVASHLQKYRQSSKKTCTPQEPQEDFVWGNAGPDVTLAASKTLLSSHATPSYLINNQAAPRGSYFMNNIPYPSTSCLPVNNNNCFMTNPSTYIDQFQHQLQQQQQHQQYQSTLNSISAMLTKQESRHVPSSAMENSEPLMIYNSNLPFGIDECFPPAGFNIFDQIGHN
B2: the binding entry in experiment [2] is reported as “no binding”.

B3: ARR21, yeast two-hybrid fusion (protein, UniProt Q9LYP5 1-613)
chain: MASAQSFYNQSSVLKINVMVVDDDHVFLDIMSRMLQHSKYRVIAVDDPKKALSTLKIQRDNIDLIITDYYMPGMNGLQLKKQITQEFGNLPVLVMSSDTNKEEESLSCGAMGFIPKPIHPTDLTKIYQFALSNKRNGKSTLSTEQNHKDADVSVPQQITLVPEQADVLKTKRKNCSFKSDSRTVNSTNGSCVSTDGSRKNRKRKPNGGPSDDGESMSQPAKKKKIQWTDSLHDLFLQAIRHIGLDKAVPKKILAFMSVPYLTRENVASHLQKYRIFLRRVAEQGLYSMLSDRGIDSMFRQTHIKEPYFNYYTPSTSWYDTRLNNRSFYSKPVHGFGQSKLLSTTREPVCFNQMPYNYMNRSSTYEPHRIGSGSNLTLPIQSNLSFPNQPSQNEERRSFFEPPVMANKIAQTSQVLGFGQLGPSAISGHNFNNNMTSRYGSLIPSQPGPSHFSYGMQSFLNNENVTYNPQPPANATTQPNLDELPQLENLNLYNDFGNTSELPYNISNFQFDDNKHQQGEADPTKFELPAAKFSTELNHEDDGDWTFVNINQGQSNGETSNTIASPETNTPILNINHNQNQGQDVPEFNDWSFLDPQELVDDDFMNSLFNNDMN
With B3, the binding result in experiment [2] is “no binding”.

B4: ARR14, yeast two-hybrid fusion (protein, UniProt Q8L9Y3 1-382)
chain: MPINDQFPSGLRILVVDDDTSCLFILEKMLLRLMYQVTICSQADVALTILRERKDSFDLVLSDVHMPGMNGYNLLQQVGLLEMDLPVIMMSVDGRTTTVMTGINHGACDYLIKPIRPEELKNIWQHVVRRKCVMKKELRSSQALEDNKNSGSLETVVVSVSECSEESLMKCRNKKKKKKRSVDRDDNEDDLLLDPGNSKKSRVVWSIELHQQFVNAVNKLGIDKAVPKRILELMNVPGLSRENVASHLQKFRLYLKRLSGEASQSNDSESTKRYENIQALVSSGQLHPQTLAALFGQPIDNHHSASFGVWIPNDNLGRSQNEHFSVDVSSASNRPVSVAVHGLSSSANFRQRGDVNNNRIRQGYGSNVNEESWILERSSRQR
Take B4: in experiment [2], the binding entry is reported as “no binding”.

B5: NO … TRACT (NTT), yeast two-hybrid fusion (protein, UniProt Q9SVY1 1-383)
chain: MTDPYSNFFTDWFKSNPFHHYPNSSTNPSPHPLPPVTPPSSFFFFPQSGDLRRPPPPPTPPPSPPLREALPLLSLSPANKQQDHHHNHDHLIQEPPSTSMDVDYDHHHQDDHHNLDDDDHDVTVALHIGLPSPSAQEMASLLMMSSSSSSSRTTHHHEDMNHKKDLDHEYSHGAVGGGEDDDEDSVGGDGGCRISRLNKGQYWIPTPSQILIGPTQFSCPVCFKTFNRYNNMQMHMWGHGSQYRKGPESLRGTQPTGMLRLPCYCCAPGCRNNIDHPRAKPLKDFRTLQTHYKRKHGIKPFMCRKCGKAFAVRGDWRTHEKNCGKLWYCICGSDFKHKRSLKDHIKAFGNGHGAYGIDGFDEEDEPASEVEQLDNDHESMQSK
With B5, the binding result in experiment [3] was “binds”.

B6: ARR18, yeast two-hybrid fusion (protein, UniProt Q9FGT7 1-635)
chain: MEFGSTEDGRHDKFPVGMRVLAVDDNPTCLRKLEELLLRCKYHVTKTMESRKALEMLRENSNMFDLVISDVEMPDTDGFKLLEIGLEMDLPVIMLSAHSDYDSVMKGIIHGACDYLVKPVGLKELQNIWHHVVKKNIKSYAKLLPPSESDSVPSASRKRKDKVNDSGDEDDSDREEDDGEGSEQDGDGSGTRKKPRVVWSQELHQKFVSAVQQLGLDKAVPKKILDLMSIEGLTRENVASHLQKYRLYLKKIDEGQQQNMTPDAFGTRDSSYFQMAQLDGLRDFTAARQIPSSGLLSRSHLTKLQPPMYSSINLQGMNSSSFIQQGHHQNSSNSANPFGTYHSTLSPRIQNVNLFQRTSSPLEPLQFPRSKSYIGDFKGLGDRAIGGSFLDTCMPFGSSSTSLPSASTNPLMLQANYTQPLHIASDGIQPCIEGTPSNSASPNISFQGLSRFPGHSWQGNLNTTRFPPSSLPLNLAFLPDQVTCAGNNLGDCTSLVSAENPGGEMQCDPQLLGGFMQNVNPLGGQKWEQQNCTMLNNPFGNIEYPLPADNMVFRDNNSTRSKGLDESLMNPIDNSQEYVGKATTMLDPEMKSGKPENDNQHDVFDDIMNEMMKQEENNGMVPVATRFGFDSFPPP
Turning to B6, in experiment [2], the binding entry is recorded as “no binding”.
